Publication PMC1184076
No constants are given. Whether binding was seen depends on the method and setting. Tags and fused reporters may be left off the sequences shown.

Molecular target: T1, GST-c-Jun, P05412
T1 chain: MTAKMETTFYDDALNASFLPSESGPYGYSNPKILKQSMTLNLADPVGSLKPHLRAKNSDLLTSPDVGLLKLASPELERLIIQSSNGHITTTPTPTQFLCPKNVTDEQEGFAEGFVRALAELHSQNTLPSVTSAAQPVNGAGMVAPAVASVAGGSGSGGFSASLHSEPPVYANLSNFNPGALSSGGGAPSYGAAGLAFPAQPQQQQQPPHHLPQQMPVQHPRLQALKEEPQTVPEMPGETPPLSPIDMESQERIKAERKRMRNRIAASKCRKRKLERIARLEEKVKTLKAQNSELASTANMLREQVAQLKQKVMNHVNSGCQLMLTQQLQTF
Test: pull-down; purified GST-p53 (or GST-c-Jun) incubated with purified His-IκBα in IP buffer (25 mM Hepes pH 7.5, 75 mM KCl, 2.5 mM MgCl2, 0.1 mM EDTA, 0.15% NP-40, 1 mM DTT); glutathione Sepharose beads; autoradiography of 32P-IκBα or Western blot for IκBα; both purified
Details: remark: other sources report otherwise

B1: [32P]-labeled 6xHis-tagged IκBα (His-IκBα), phosphorylated in vitro by p90rsk, P25963 1-317 (protein)
chain: MFQAAERPQEWAMEGPRDGLKKERLLDDRHDSGLDSMKDEEYEQMVKELQEIRLEPQEVPRGSEPWKQQLTEDGDSFLHLAIIHEEKALTMEVIRQVKGDLAFLNFQNNLQQTPLHLAVITNQPEIAEALLGAGCDPELRDFRGNTPLHLACEQGCLASVGVLTQSCTTPHLHSILKATNYNGHTCLHLASIHGYLGIVELLVSLGADVNAQEPCNGRTALHLAVDLQNPDLVSLLLKCGADVNRVTYQGYSPYQLTWGRPSTRIQQQLGQLTLENLQMLPESEDEESYDTESEFTEFTEDELPYDDCVFGGQRLTL
modifications: here or on the partner: 32P-phosphate put on in vitro by p90rsk; site not stated
B1 was tested, and the binding was “no binding”.
